# Test results taken from US20030099600A1, “Metalloproteinase inhibitors for the treatment of respiratory diseases” (priority 2000, published 2003).
# pIC50: −log10 of the molar value. For at least one compound, name, drawing or mass did not settle the structure.
# Columns and labels:
# MMP-1 = test: Lung tissue study: MMP-1 released by human lung tissue in vitro (ELISA); assay type: cell-based; settings: 10^-4
# Experimental: (§1) This study was done to assess the effects of doxycycline on the release of matrix metalloproteinases by human lung tissue in vitro.
# (§2) On the following day, 2-3 fragments (total weight 50 mg) were placed in 0.8 ml of culture buffer and 0.1 ml of doxycycline (to give a final concentration of 10^−4-10^−8M) or a buffer control was added.
# (§3) After one hours incubation at 37° C., the fragments were treated with either 0.1 ml of either a buffer control (unstimulated fragments) or 1000 U/ml interleukin-1 (final concentration of 100 U/ml IL-1). The fragments were then incubated for 24 hours and the supernatant recovered; the tissue was weighed and stored at −70° C.
# (§4) The MMPs and TIMPs released into the supematant were measured using commercial ELISAs (Amersham); values were expressed as ng of MMP/TIMP per mg of lung tissue.
# MMP-1 levels are analysed by Elisa plates (Code No. RPN2610) from Amersham Pharmacia Biotech UK Limited, Amersham Place, Little Chalfont, BUCKS HP7 9NA.
# (§5) The Elisa is run as per manufacturer's instructions.
# This Elisa is specific for total MMP-1; recognising pro MMP-1, active MMP-1 and MMP-1/TIMP-1 complex.
# MMP-2 = test: Lung tissue study: MMP-2 released by human lung tissue in vitro (ELISA); assay type: cell-based; settings: 10^-4
# Experimental: as §1, §2, §3, §4
# MMP-2 levels are analysed by Elisa plates (Code No. RPN2617) from Amersham Pharmecia Biotech UK Limited, Amersham Place, Little Chalfont, BUCKS HP7 9NA.
# as §5
# This Elisa is specific for proMMP-2; recognising free proMMP-2 and MMP-2 complexed to TIMP-2, but not the active form of MMP-2. No cross-reactivity with MMP-1, 3, 7, 8, 9 and MT1-MMP.
# MMP-9 = test: Lung tissue study: MMP-9 released by human lung tissue in vitro (ELISA); assay type: cell-based; settings: 10^-4
# Experimental: as §1, §2, §3, §4
# [1] = molecular target: MMP1 or MMP2 or MMP8 or MMP9; test: MMP enzyme assay (concentration giving greater than 50% inhibition); assay type: biochemical
structure (smiles),measurement,setting,value
C[C@H]1c2cccc(O)c2C(=O)C2=C(O)[C@]3(O)C(=O)C(C(N)=O)=C(O)[C@@H](N(C)C)[C@@H]3[C@@H](O)[C@@H]21 [doxycycline],change in MMP-1 in treated lung tissue,MMP-1,dramatic decrease
same,change in MMP-2 in treated lung tissue,MMP-2,dramatic decrease
same,change in MMP-9 in treated lung tissue,MMP-9,dramatic decrease
same,pIC50,[1],~4.70
